Test results: publication PMC5723433, “Identification and characterization of a novel zebrafish (Danio rerio) pentraxin–carbonic anhydrase” (PeerJ, 2017)

The chains behind the UniProt entries cited, without tags or fusion partners. Residues count along the entry.
UniProt E9QB97, 20-530: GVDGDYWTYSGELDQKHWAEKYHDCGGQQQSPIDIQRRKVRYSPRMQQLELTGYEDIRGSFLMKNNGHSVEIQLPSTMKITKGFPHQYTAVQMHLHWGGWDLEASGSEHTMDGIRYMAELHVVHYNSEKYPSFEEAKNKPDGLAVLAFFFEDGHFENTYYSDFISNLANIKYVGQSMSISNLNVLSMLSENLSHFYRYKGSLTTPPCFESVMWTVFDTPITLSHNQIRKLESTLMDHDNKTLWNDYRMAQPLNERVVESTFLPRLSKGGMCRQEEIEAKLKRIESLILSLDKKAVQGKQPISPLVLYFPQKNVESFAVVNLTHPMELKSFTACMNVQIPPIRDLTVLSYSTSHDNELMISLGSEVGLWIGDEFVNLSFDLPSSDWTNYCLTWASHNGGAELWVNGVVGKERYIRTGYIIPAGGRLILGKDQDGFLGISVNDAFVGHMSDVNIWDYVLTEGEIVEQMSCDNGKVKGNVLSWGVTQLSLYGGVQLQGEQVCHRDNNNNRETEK

Molecular target: T1, CA VI–PTX (Pentraxin-CA VI) (Danio rerio, UniProt E9QB97)
T1 construct: gene ca6
Experiment: biochemical

## CC(=O)Nc1nnc(S(N)(=O)=O)s1 [AAZ, 5-acetamido-1,3,4-thiadiazole-2-sulfonamide]
  Ki: 5 nM
